Results on 1 substance are retold here after US10442838 (dated 2019).

The series is described as follows: general procedure: Fmoc solid-phase peptide synthesis; Fmoc-Tyr(tBu)-Wang resin, 0.50 mmol/g (Wang or 2-chloro resin); DIC/HOBt. Particulars: oxidative folding step.

Regarding linaclotide, the oxidative folding yield is 70%. Further, where the note is “HPLC”, the “final purity (method not given)” value was 99.5%.
